Test results from publication PMC3565087.
These are yes or no findings as the source states them, for the method shown. Binding seen in cells or lysates may run through a third protein. Some binding calls cover weakened binding; strength is not graded here.

Target: T1, Phosphoglycerate dehydrogenase (human (endogenous in U87 and U251)) (UniProt O43175)
T1 sequence: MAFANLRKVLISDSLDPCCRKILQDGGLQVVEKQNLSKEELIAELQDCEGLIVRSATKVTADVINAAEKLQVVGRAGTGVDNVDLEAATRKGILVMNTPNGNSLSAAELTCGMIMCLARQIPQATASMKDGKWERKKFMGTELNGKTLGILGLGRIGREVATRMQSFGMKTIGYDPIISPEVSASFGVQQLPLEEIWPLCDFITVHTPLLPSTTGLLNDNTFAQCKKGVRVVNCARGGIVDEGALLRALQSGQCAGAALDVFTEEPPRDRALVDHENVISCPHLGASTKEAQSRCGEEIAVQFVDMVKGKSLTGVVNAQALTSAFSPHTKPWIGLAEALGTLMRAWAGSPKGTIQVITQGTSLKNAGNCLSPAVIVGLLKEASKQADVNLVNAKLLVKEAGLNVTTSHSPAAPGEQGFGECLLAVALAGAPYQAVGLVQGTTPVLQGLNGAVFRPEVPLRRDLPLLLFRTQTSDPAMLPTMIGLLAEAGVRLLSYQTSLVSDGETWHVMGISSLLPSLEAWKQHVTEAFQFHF
Test: co-IP; endogenous proteins in U87 and U251 cells; anti-PHGDH or anti-FOXM1 antibody; lysis in 62.5 mmol/L Tris-HCl (pH 6.8), 10 % glycerol; overnight with antibody, agarose A/G beads

B1: forkhead box M1 (protein, UniProt Q08050 1-763)
chain: MKTSPRRPLILKRRRLPLPVQNAPSETSEEEPKRSPAQQESNQAEASKEVAESNSCKFPAGIKIINHPTMPNTQVVAIPNNANIHSIITALTAKGKESGSSGPNKFILISCGGAPTQPPGLRPQTQTSYDAKRTEVTLETLGPKPAARDVNLPRPPGALCEQKRETCADGEAAGCTINNSLSNIQWLRKMSSDGLGSRSIKQEMEEKENCHLEQRQVKVEEPSRPSASWQNSVSERPPYSYMAMIQFAINSTERKRMTLKDIYTWIEDHFPYFKHIAKPGWKNSIRHNLSLHDMFVRETSANGKVSFWTIHPSANRYLTLDQVFKPLDPGSPQLPEHLESQQKRPNPELRRNMTIKTELPLGARRKMKPLLPRVSSYLVPIQFPVNQSLVLQPSVKVPLPLAASLMSSELARHSKRVRIAPKVLLAEEGIAPLSSAGPGKEEKLLFGEGFSPLLPVQTIKEEEIQPGEEMPHLARPIKVESPPLEEWPSPAPSFKEESSHSWEDSSQSPTPRPKKSYSGLRSPTRCVSEMLVIQHRERRERSRSRRKQHLLPPCVDEPELLFSEGPSTSRWAAELPFPADSSDPASQLSYSQEVGGPFKTPIKETLPISSTPSKSVLPRTPESWRLTPPAKVGGLDFSPVQTSQGASDPLPDPLGLMDLSTTPLQSAPPLESPQRLLSSEPLDLISVPFGNSSPSDIDVPKPGSPEPQVSGLAANRSLTEGLVLDTMNDSLSKILLDISFPGLDEDPLGPDNINWSQFIPELQ
binding: binds
